These are yes or no findings as the source states them, for the method shown. In cells and extracts the contact can be indirect. Some entries that bind do so weakly or less than the wild type.
Target: HACRY, a hemagglutinin (HA)-tagged form of Drosophila CRYPTOCHROME (dCRY) (Drosophila melanogaster) (UniProt O77059)
Assay: co-IP; Co-IP from head extracts of tim > HACRY flies, dark (ZT0) and light (ZT0 + 15 min light pulse); blot with anti-SQUID and anti-HA; tim-GAL4 flies as negative control

By UniProt entry, the sequences of proteins in these tests, tags left out.
UniProt O77059: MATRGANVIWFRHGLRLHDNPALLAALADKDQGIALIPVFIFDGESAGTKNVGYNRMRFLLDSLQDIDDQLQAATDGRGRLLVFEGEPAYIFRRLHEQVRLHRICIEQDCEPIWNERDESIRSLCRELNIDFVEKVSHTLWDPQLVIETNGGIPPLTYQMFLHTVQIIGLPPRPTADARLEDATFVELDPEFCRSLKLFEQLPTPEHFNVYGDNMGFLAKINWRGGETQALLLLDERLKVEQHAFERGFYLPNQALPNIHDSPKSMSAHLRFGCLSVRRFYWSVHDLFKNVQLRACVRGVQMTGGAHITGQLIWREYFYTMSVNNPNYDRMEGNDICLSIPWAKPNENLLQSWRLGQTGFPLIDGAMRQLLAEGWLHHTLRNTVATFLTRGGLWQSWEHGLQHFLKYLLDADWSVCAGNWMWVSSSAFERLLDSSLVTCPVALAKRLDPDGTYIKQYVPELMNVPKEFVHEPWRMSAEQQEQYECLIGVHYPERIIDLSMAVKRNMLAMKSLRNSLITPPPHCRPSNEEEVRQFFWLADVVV

B1: RNA-binding protein SQUID (protein, UniProt Q08473 1-344)
chain: MAENKQVDTEINGEDFTKDVTADGPGSENGDAGAAGSTNGSSDNQSAASGQRDDDRKLFVGGLSWETTEKELRDHFGKYGEIESINVKTDPQTGRSRGFAFIVFTNTEAIDKVSAADEHIINSKKVDPKKAKARHGKIFVGGLTTEISDEEIKTYFGQFGNIVEVEMPFDKQKSQRKGFCFITFDSEQVVTDLLKTPKQKIAGKEVDVKRATPKPENQMMGGMRGGPRGGMRGGRGGYGGRGGYNNQWDGQGSYGGYGGGYGGYGAGGYGDYYAGGYYNGYDYGYDGYGYGGGFEGNGYGGGGGGNMGGGRGGPRGGGGPKGGGGFNGGKQRGGGGRQQRHQPY
binding: binds

— publication PMC12661795
